# Measurements reported in PubChem BioAssay AID504786 (Drosophila RNAi Screening Center, 2011).
# Assay: 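Knock-downs reducing HIF reporter induction by the iron chelator DFO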 (primary screen)
# System: Drosophila S2 cells with a stable HIF luciferase reporter
# Knock-down reagent: long dsRNA against Drosophila genes, about 0.2 µg dsRNA per well of a 384-well plate
# Time to read-out: three days of knock-down, then 20 h of DFO before reading
# Conditions: desferrioxamine (DFO) at 100 µM, an iron chelator that mimics hypoxia, for 20 h
# Read-out: 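Firefly luciferase driven by the mouse ldh-a hypoxia-response element, measured after 20 h of 100 µM DFO; z-scores per plate, higher means more signal lost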
# Direction: z-score: higher = stronger loss of HIF reporter signal
# In all, the deposit lists about 21,000 reagents; below is a random part of those that have a named target and a result. 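Primary screen; positive scores mean lost reporter signal, so the sign may be inverted from the usual convention.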 Names joined by + are all predicted targets of the reagent. Further read-outs or replicates are left out here.
The first 3 entries, to show the layout:
gene knocked down,dsRNA,"z-score, replicate 1","z-score, replicate 2","z-score, replicate 3"
CG13295,DRSC09969,-0.2,0,
VhaM9.7-b (Vacuolar H[+] ATPase M9.7 subunit b),DRSC11841,-0.3,-0.6,
disp (dispatched),DRSC12376,-0.1,-0.1,

Results, from the start:
gene knocked down,dsRNA,"z-score, replicate 1","z-score, replicate 2","z-score, replicate 3"
CG13295,DRSC09969,-0.2,0,
VhaM9.7-b (Vacuolar H[+] ATPase M9.7 subunit b),DRSC11841,-0.3,-0.6,
disp (dispatched),DRSC12376,-0.1,-0.1,
CG3984,DRSC15530,-0.4,0.4,
Eaf6 (Esa1-associated factor 6),DRSC09901,-0.3,-1,
"Polr2H (RNA polymerase II, I and III subunit H)",DRSC11642,2.7,2.4,
lgs (legless),DRSC17152,-0.1,-0.1,
CG7191,DRSC03022,-0.1,0,
CG1703,DRSC19764,0.2,0.8,
Grip (Glutamate receptor interacting protein),DRSC17940,0.7,1.8,
Grip (Glutamate receptor interacting protein),DRSC18395,0,-0.5,
Syx17 (Syntaxin 17),DRSC08591,-0.2,-0.6,
Acsx1L (Acyl-CoA synthetase X1 L),DRSC16014,-1.2,-0.2,
Jon66Ci (Jonah 66Ci),DRSC10772,-0.2,0.1,
Ir7a (Ionotropic receptor 7a),DRSC17866,-0.1,-0.1,
unc-13,DRSC17192,-0.2,-0.3,
unc-13,DRSC17193,-0.3,-0.6,
unc-13,DRSC17223,-0.1,-0.3,
CG11373,DRSC12170,-0.1,-0.6,
CG32591,DRSC19063,-0.2,-0.3,
Rpt4R (Regulatory particle triple-A ATPase 4-related),DRSC10791,-0.2,0.1,
Drep1 (DNA fragmentation factor-related protein 1),DRSC07527,-0.5,-0.9,
Vps52 (Vacuolar protein sorting 52),DRSC03050,-0.4,-0.4,
CG6277,DRSC16008,0,-0.6,
CheB98a (Chemosensory protein A 98a),DRSC14882,-0.5,-0.4,
CG42322,DRSC15112,-0.2,-0.6,
CG42322,DRSC15113,-0.4,-0.2,
CG42322,DRSC15114,0.2,-0.8,
CG5861,DRSC02907,-0.1,-0.2,
Adck1 (aarF domain containing kinase 1),DRSC04394,-0.4,-0.2,
CG14420,DRSC17917,-0.3,-0.3,
CG12498,DRSC18635,-0.1,-0.3,
CG42613,DRSC13332,-0.7,-0.5,
CG42613,DRSC14769,0.4,1.2,
CG42613,DRSC15802,-0.2,-0.5,
"PTPMT1 (Protein tyrosine phosphatase, mitochondrial 1)",DRSC14235,-0.1,-0.1,
sip1 (septin interacting protein 1),DRSC03609,0.6,2,
CG13390,DRSC02261,0,0,
Fbw5 (F-box and WD repeat domain containing 5),DRSC03146,-0.4,-0.5,
Mst27D (Male specific transcript 27D),DRSC00967,1.7,1.2,
Dyro (Dpt-YFP repressor by overexpression),DRSC10598,-0.1,-0.3,
Cdc2rk (Cdc2-related kinase),DRSC07590,0,0.2,
Rim (Rab3 interacting molecule),DRSC16224,-1.1,0.2,
Rim (Rab3 interacting molecule),DRSC16225,1,-0.5,
Rim (Rab3 interacting molecule),DRSC16226,-0.2,-0.5,
Rim (Rab3 interacting molecule),DRSC16227,-0.5,-0.2,
alpha-Man-IIa (alpha-Mannosidase class II a),DRSC15393,-0.3,-0.4,
CG12974,DRSC11684,-0.3,-0.2,
LamC (Lamin C),DRSC07453,-0.4,-0.5,
CG6614,DRSC02974,-0.3,-0.4,
CG10680,DRSC02093,-0.3,-0.4,
AIMP3 (aaRS-interacting multifunctional protein 3),DRSC04500,-0.3,0,
Ravus,DRSC15126,-0.6,-1.1,
fd3F + CG42499 (retired record),DRSC18160,-0.4,-0.1,
fd3F + CG42499 (retired record),DRSC18161,-0.4,0.2,
CG31826,DRSC03357,-0.4,-0.1,
RpS26 (Ribosomal protein S26),DRSC03420,-0.2,6,
Mst84Db (Male-specific RNA 84Db),DRSC12542,-0.4,-0.5,
Mst84Db (Male-specific RNA 84Db),DRSC12598,-0.3,-0.5,
Sln (Silnoon),DRSC07133,-0.6,-0.7,
grn (grain),DRSC12666,3.8,0.1,
grn (grain),DRSC16961,-0.2,-0.4,
CG7536,DRSC20050,-0.4,-0.5,
CG16953,DRSC15167,-0.3,-0.2,
CG32086,DRSC10586,-0.3,-0.1,
Asator,DRSC17136,-0.2,-0.2,
CG11658,DRSC09852,-0.3,-0.3,
PMCA (plasma membrane calcium ATPase),DRSC17113,-0.4,-0.3,
PMCA (plasma membrane calcium ATPase),DRSC17114,-0.9,-1,
PMCA (plasma membrane calcium ATPase),DRSC17154,-0.5,-1.5,
Gpdh1 (Glycerol-3-phosphate dehydrogenase 1),DRSC03336,-0.4,-0.7,
hiro (highroad),DRSC08564,-0.2,0.3,
CG17764,DRSC18135,-0.1,0.4,
Hcs (Holocarboxylase synthetase),DRSC12070,-0.4,-0.4,
Hcs (Holocarboxylase synthetase),DRSC12256,-0.3,-0.7,
mew (multiple edematous wings),DRSC18971,0,0.3,
mew (multiple edematous wings),DRSC20352,-0.4,-0.6,
VhaPPA1-1 (Vacuolar H[+] ATPase PPA1 subunit 1),DRSC16170,-0.4,-0.4,
CG2021,DRSC08546,-0.1,0.4,
SLC22A (SLC22A family member),DRSC11826,-0.2,-0.1,
SLC22A (SLC22A family member),DRSC11827,-0.3,0.1,
CG12236,DRSC17830,0.8,1.1,
CG12236,DRSC17831,-0.3,-0.4,
Mybbp1A (MYB binding protein 1a),DRSC18788,-0.3,-0.3,
Rab40,DRSC19820,-0.4,0.5,
Kots (Kotsubu),DRSC16581,-0.3,-0.2,
CG31675,DRSC01825,-0.7,-0.5,
Vps13D (Vacuolar protein sorting 13D),DRSC09818,-0.2,-0.3,
Vps13D (Vacuolar protein sorting 13D),DRSC09819,-0.2,-0.4,
Tsp96F (Tetraspanin 96F),DRSC14147,-0.3,-0.1,
CG33232 (retired record),DRSC08187,-0.2,-0.1,
CG33232 (retired record),DRSC08495,2.1,0.6,
Obp56b (Odorant-binding protein 56b),DRSC06551,-0.1,-0.1,
sba (six-banded),DRSC13643,-0.1,-0.5,
sba (six-banded),DRSC17050,0.1,-0.2,-0.1
CG30105,DRSC05668,-0.8,-0.2,
Pa1 (PTIP associated 1),DRSC19422,-0.3,0.2,
Sec22 (Secretory 22),DRSC18538,-0.3,-0.4,
Zip48C (Zinc/iron regulated transporter-related protein 48C),DRSC06314,-0.3,0,
Decay (Death executioner caspase related to Apopain/Yama),DRSC16930,-0.4,-0.5,
CG6830,DRSC16124,-0.3,-0.1,
IFT52 (Intraflagellar transport 52),DRSC03271,-0.3,-0.5,
CG42490 (retired record),DRSC01649,-0.1,0.6,
fne (found in neurons),DRSC20332,1.2,0.9,
Jhbp15 (Juvenile hormone binding protein 15),DRSC15217,-0.4,-0.2,
Cp16 (Chorion protein 16),DRSC11119,-0.1,-0.4,
